Data reported in article PMC8956953.
Results are given in words; binding and its absence hold for the method and conditions named. Some binding calls cover weakened binding; strength is not graded here.

Protein sequences, listed by entry. Tags and fused reporters are not part of them.
UniProt P53667: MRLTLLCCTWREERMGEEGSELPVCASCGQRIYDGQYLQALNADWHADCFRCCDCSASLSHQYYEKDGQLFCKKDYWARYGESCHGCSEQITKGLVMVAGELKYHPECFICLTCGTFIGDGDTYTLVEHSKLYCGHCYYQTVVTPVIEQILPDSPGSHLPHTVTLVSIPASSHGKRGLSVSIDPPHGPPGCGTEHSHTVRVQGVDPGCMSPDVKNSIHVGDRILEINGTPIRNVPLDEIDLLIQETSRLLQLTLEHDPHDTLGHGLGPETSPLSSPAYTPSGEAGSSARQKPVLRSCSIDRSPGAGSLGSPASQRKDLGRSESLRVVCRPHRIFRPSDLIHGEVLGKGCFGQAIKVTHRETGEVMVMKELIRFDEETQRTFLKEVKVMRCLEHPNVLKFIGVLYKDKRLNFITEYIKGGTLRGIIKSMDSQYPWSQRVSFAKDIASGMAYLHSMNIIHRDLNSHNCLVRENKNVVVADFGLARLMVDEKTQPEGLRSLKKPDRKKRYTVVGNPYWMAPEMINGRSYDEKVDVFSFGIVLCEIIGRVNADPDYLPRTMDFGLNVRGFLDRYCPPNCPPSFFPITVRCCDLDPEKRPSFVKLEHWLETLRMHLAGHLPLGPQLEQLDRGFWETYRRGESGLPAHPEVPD
UniProt O43865: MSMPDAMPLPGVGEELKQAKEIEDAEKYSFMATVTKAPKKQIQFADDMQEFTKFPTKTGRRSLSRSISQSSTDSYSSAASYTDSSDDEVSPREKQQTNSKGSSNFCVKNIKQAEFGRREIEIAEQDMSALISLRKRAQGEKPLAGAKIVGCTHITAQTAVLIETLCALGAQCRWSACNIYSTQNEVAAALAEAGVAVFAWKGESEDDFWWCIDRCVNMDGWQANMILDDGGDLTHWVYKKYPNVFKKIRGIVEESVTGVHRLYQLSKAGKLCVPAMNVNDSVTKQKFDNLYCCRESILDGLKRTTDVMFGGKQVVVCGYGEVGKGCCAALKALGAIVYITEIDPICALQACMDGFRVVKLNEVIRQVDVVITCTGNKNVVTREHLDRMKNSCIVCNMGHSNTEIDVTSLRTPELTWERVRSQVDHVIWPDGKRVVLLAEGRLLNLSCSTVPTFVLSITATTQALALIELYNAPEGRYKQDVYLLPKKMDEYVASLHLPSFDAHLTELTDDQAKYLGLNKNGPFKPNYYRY
UniProt Q14247: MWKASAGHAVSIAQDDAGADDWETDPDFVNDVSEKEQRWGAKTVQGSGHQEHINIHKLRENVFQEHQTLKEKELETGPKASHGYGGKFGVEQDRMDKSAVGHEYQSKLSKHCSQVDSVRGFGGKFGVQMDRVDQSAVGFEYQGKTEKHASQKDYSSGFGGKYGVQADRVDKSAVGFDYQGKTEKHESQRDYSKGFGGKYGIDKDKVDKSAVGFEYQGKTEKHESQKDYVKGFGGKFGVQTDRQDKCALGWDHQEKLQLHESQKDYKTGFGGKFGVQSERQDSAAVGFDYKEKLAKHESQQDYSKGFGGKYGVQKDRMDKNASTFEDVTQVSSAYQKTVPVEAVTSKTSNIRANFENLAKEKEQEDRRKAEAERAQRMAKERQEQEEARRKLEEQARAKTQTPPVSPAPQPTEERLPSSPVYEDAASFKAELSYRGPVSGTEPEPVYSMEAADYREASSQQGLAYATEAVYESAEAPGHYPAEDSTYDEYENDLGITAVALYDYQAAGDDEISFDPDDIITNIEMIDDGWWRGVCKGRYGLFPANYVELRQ
UniProt Q9HBH9: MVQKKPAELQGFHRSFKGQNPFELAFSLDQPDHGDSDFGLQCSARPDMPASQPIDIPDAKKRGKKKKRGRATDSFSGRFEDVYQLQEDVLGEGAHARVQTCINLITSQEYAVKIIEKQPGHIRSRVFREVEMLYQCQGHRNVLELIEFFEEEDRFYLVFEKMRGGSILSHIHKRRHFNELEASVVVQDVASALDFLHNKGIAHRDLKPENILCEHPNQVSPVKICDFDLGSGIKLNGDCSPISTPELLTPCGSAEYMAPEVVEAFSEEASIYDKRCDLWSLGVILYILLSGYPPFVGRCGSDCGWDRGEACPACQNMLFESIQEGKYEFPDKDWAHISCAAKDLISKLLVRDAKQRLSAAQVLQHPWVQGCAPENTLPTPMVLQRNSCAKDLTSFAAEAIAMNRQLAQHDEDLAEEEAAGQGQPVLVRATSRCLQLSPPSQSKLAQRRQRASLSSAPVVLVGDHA

Columns and labels:
Experiment in all cases: peptide or protein array; ProtoArray Human Protein Microarrays v5.1, ~9000 N-terminal GST-tagged human proteins spotted on nitrocellulose-coated slides; htau40 at 5 and 50 ng/μl in probe buffer (1x PBS, 0.1% Tween-20, 1x synthetic block), 90 min at 4 °C; detected with anti-tau K9JA and Alexa Fluor 647 secondary antibody; both purified
[1] = molecular target: LIMK1, spotted on the ProtoArray (human) (UniProt P53667)
[2] = molecular target: SAH hydrolase-like protein 1/IP3R-binding protein (AHCYL1/IRBIT), spotted on the ProtoArray (human) (UniProt O43865)
[3] = molecular target: T1, SAMSN1, spotted on the ProtoArray (human) (UniProt Q9NSI8)
T1 sequence: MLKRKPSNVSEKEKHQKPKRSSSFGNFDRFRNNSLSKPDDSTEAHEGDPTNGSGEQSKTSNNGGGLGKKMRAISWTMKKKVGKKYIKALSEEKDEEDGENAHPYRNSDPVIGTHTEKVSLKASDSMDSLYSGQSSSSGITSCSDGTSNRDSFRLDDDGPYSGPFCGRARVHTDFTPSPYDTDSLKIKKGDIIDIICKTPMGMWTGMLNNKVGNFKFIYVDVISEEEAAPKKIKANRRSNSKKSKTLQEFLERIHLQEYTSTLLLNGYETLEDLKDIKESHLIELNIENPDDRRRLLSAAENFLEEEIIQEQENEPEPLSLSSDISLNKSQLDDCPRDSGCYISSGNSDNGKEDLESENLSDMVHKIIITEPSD

[4] = molecular target: Src substrate cortactin, spotted on the ProtoArray (human) (UniProt Q14247)
[5] = molecular target: T2, SH3D19, spotted on the ProtoArray (human) (UniProt Q5HYK7)
T2 sequence: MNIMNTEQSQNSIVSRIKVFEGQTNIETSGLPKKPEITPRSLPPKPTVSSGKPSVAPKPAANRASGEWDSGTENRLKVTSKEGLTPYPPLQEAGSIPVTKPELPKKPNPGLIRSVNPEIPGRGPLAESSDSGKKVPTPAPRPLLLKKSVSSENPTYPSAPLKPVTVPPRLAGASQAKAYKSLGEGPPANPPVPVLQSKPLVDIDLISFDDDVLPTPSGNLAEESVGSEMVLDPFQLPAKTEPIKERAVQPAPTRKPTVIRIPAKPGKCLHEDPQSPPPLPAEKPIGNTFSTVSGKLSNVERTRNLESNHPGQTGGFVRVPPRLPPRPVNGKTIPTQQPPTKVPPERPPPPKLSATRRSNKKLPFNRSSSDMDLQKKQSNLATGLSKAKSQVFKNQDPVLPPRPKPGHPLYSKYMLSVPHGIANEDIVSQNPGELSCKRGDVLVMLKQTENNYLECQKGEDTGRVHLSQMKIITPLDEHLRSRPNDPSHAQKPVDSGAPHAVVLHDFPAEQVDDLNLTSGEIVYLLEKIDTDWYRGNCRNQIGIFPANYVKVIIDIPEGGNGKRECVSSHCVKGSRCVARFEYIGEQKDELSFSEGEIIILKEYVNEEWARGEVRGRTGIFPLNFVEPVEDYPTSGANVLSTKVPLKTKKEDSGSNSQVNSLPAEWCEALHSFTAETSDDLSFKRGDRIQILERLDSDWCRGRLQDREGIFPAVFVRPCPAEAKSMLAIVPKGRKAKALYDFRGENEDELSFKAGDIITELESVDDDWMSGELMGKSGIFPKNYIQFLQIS

[6] = molecular target: MKNK2, spotted on the ProtoArray (human) (UniProt Q9HBH9)
[7] = molecular target: T3, MAPK8IP2, spotted on the ProtoArray (human) (UniProt Q13387)
T3 sequence: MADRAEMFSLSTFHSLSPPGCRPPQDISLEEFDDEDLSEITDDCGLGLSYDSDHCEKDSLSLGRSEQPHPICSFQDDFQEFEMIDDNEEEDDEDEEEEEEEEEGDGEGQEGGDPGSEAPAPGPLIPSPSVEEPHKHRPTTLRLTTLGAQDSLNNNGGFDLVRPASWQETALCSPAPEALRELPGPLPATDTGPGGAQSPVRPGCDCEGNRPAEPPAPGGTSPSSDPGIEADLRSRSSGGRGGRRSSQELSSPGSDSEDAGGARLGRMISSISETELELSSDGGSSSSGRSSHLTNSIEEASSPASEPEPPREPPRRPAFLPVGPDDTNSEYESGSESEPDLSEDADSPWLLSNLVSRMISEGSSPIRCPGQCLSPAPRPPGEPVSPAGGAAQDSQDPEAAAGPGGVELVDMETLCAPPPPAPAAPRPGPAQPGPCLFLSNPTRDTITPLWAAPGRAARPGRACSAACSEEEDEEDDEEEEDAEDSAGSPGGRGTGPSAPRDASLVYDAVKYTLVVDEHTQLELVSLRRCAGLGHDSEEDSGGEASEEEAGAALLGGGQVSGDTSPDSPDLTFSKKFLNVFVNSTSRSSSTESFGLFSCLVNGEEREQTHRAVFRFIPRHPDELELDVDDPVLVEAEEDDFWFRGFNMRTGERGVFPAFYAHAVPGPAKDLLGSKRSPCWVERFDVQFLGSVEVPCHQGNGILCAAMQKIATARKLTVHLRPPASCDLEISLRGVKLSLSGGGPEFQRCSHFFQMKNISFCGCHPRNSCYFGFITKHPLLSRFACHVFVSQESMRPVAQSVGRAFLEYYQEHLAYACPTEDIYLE

Measured: binding

recombinant human full-length tau protein (htau40) (from UniProt P10636-8 1-441)
binds: [1] | [2] | [3] | [4] | [5] | [6] | [7]
